This passage reports step yield results from patent US12618835B2 (Kansas State University Research Foundation, priority 2021, dated 2026).

The nature of the data set: general procedure: Fmoc solid-phase peptide synthesis; H-Ala-2-chlorotrityl resin (1% DVB, 100-200 mesh); HBTU/DIPEA; HATU for ferrocene coupling. Conditions: late stage modification step.

In the case of “H2N-(CH2)4-CO-Pro-Leu-Ala-Phe-Val-Ala-NH-CH2-Fc (PLAFVA; N-terminal aminopentanoyl; C-terminal aminomethylferrocene; Synthetic substrate peptide)”, the step yield stood at 86% yield.
